The other results are listed elsewhere or left out. Most values lie at the level of the controls, where differences are scatter.
What follows are targets tested with CC1(C)S[C@@H]2[C@H](NC(=O)[C@H](N)c3ccccc3)C(=O)N2[C@H]1C(=O)O [ampicillin] (assay: log2 fold change of tryptic peptide abundance, ligand vs vehicle (limited proteolysis) (log2 ratio); higher = more trypsin-susceptible (destabilized)). Conditions: ligand concentration: 10 uM; sample: E. coli crude lysate.

Amino acid sequences for entries named in this document (tags omitted). A change or cut given only in a name is not applied to a line headed by its entry.
UniProt P45469: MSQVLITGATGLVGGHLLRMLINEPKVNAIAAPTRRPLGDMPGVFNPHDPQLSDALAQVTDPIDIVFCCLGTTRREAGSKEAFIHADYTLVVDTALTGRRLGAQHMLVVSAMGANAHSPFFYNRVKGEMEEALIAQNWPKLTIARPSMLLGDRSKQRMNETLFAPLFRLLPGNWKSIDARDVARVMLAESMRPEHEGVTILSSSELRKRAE
UniProt P45799: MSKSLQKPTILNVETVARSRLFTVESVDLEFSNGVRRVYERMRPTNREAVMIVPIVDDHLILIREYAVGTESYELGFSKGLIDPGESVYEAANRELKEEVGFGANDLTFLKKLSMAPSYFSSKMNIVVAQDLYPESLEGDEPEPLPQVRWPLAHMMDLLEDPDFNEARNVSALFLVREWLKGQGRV
UniProt P42590: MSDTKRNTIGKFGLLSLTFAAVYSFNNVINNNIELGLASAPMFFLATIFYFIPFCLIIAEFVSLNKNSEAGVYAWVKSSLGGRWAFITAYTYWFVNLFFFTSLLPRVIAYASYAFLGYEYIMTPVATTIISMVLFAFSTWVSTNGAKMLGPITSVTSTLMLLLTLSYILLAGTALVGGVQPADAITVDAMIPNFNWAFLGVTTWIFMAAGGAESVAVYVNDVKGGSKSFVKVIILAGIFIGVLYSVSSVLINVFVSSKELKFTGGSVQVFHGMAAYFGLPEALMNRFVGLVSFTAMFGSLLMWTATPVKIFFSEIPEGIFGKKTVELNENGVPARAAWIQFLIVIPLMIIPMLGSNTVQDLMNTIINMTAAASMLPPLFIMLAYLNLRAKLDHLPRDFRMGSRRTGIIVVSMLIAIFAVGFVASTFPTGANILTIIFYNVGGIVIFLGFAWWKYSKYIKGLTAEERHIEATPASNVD
UniProt P37759: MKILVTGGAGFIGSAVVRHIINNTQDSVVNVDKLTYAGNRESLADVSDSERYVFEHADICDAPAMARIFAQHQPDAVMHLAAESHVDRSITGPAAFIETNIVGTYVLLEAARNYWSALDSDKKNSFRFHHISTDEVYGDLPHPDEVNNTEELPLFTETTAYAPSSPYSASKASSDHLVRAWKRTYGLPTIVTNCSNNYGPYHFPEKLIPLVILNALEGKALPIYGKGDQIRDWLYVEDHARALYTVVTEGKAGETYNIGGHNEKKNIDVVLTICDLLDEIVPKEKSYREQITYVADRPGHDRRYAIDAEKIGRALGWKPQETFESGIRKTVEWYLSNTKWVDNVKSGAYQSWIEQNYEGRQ
UniProt P37590: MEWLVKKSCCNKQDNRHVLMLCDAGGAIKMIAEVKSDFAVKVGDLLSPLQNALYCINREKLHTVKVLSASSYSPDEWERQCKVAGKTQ
UniProt P37671: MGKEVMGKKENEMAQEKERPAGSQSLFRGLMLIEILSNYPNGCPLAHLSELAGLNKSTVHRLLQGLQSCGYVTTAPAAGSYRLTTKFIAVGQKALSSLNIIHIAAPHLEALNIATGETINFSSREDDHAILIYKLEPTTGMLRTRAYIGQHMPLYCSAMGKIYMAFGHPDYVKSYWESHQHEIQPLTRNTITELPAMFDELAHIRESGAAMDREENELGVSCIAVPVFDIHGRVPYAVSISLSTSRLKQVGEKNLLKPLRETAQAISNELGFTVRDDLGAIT
UniProt P33941: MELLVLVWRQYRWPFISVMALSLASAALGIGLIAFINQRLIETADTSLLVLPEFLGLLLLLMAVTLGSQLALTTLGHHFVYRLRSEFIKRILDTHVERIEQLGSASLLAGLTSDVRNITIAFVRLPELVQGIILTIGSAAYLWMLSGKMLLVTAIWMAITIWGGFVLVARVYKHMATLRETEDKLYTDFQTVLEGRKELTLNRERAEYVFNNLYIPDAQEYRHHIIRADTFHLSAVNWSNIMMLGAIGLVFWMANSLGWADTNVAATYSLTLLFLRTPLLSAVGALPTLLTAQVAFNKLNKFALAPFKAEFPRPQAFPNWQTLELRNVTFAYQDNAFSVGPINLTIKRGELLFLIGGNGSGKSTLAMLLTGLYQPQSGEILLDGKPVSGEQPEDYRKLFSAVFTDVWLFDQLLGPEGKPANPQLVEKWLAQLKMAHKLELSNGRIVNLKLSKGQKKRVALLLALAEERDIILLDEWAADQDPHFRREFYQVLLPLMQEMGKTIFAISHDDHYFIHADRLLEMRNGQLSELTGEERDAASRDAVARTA
UniProt P39358: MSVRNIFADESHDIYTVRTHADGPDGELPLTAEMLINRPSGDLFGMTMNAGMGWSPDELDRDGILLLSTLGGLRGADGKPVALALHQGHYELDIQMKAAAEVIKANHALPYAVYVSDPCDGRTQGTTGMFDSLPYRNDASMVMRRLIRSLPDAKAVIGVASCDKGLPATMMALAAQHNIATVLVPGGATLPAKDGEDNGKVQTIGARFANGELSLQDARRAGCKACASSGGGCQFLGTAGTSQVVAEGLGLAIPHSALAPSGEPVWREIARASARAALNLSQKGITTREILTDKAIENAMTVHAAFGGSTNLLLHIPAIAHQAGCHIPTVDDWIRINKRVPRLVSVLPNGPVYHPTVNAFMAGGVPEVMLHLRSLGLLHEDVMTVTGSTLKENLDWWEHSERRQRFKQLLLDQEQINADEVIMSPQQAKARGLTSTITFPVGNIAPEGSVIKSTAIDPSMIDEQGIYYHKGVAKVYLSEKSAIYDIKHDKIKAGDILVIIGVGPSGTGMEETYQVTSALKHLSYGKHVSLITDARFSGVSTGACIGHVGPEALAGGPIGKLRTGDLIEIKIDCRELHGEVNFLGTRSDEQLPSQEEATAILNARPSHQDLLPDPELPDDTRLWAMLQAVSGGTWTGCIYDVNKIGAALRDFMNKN
UniProt P39346: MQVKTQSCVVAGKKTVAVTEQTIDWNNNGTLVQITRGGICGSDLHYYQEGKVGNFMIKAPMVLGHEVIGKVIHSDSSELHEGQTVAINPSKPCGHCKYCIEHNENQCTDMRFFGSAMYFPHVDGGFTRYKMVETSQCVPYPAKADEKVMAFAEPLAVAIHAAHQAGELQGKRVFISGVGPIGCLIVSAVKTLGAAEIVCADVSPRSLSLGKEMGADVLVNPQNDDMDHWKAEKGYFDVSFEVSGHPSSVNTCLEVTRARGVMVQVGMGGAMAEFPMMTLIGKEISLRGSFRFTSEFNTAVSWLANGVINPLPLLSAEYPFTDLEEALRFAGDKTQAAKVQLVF
UniProt P45736: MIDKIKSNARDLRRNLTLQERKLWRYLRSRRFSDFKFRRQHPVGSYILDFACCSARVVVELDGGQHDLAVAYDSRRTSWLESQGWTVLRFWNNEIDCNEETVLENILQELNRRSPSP
UniProt P37351: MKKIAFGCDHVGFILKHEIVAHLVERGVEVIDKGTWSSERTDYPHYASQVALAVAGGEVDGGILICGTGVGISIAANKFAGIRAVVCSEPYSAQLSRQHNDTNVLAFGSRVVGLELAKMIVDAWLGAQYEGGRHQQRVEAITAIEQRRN
UniProt P39364: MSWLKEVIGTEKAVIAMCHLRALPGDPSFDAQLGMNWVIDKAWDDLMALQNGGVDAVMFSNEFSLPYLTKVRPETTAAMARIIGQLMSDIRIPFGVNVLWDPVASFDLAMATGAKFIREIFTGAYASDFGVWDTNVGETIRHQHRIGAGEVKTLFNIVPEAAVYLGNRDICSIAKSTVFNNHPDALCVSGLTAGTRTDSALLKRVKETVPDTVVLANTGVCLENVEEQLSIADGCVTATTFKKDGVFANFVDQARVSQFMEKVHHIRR
UniProt P39285: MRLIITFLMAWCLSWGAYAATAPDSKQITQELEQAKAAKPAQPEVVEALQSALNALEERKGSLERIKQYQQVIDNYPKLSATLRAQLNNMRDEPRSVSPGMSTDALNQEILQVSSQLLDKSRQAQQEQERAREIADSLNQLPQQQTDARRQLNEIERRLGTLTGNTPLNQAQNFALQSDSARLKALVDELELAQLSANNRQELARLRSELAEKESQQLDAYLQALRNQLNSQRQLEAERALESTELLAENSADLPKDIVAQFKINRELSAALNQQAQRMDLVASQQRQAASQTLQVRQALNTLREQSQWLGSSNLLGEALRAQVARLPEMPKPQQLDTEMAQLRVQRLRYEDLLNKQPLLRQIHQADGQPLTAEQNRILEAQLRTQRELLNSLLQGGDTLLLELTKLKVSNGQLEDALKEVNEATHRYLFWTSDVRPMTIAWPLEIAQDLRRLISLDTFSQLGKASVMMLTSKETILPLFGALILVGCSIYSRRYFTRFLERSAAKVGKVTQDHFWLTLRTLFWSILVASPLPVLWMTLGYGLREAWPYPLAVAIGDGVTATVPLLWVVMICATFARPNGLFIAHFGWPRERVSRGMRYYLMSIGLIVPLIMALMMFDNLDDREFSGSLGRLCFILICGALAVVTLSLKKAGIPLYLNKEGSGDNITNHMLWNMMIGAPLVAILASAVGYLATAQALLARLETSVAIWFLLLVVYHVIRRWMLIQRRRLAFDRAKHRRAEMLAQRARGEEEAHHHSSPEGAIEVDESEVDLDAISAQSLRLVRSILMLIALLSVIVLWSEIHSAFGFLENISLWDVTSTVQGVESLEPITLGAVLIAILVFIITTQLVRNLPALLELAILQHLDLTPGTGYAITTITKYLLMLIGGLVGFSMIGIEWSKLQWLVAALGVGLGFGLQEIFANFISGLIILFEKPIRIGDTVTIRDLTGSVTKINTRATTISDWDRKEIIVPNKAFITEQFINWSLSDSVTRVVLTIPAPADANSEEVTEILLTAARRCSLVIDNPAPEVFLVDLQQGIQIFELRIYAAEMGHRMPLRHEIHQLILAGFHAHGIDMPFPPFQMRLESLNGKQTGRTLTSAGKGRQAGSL
UniProt P45395: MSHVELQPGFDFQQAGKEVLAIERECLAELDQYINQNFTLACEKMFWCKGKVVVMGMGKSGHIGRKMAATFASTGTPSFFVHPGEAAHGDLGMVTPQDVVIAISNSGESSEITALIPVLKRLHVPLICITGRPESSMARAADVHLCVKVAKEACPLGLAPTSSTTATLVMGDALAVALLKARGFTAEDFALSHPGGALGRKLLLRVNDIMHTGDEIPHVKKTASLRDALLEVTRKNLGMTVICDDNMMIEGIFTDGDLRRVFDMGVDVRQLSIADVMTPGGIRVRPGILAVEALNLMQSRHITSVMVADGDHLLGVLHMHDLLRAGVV
UniProt P37194: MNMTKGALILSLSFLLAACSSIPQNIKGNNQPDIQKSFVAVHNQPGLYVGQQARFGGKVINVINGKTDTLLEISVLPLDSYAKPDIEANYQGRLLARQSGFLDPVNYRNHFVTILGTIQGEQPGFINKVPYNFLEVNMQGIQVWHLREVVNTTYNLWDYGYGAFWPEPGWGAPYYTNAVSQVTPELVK
UniProt P37349: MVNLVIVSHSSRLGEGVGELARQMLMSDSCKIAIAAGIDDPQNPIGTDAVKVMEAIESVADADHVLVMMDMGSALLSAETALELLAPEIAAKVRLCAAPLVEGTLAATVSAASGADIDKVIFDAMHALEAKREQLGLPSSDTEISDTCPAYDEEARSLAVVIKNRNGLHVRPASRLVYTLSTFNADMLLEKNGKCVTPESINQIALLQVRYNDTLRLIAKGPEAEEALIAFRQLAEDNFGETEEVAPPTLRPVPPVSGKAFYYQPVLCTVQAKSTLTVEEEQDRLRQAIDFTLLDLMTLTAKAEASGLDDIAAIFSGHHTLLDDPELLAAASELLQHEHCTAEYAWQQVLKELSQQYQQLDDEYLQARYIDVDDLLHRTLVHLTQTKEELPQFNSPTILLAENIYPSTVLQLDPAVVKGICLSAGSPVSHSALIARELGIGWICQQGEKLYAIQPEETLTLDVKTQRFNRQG
UniProt P45800: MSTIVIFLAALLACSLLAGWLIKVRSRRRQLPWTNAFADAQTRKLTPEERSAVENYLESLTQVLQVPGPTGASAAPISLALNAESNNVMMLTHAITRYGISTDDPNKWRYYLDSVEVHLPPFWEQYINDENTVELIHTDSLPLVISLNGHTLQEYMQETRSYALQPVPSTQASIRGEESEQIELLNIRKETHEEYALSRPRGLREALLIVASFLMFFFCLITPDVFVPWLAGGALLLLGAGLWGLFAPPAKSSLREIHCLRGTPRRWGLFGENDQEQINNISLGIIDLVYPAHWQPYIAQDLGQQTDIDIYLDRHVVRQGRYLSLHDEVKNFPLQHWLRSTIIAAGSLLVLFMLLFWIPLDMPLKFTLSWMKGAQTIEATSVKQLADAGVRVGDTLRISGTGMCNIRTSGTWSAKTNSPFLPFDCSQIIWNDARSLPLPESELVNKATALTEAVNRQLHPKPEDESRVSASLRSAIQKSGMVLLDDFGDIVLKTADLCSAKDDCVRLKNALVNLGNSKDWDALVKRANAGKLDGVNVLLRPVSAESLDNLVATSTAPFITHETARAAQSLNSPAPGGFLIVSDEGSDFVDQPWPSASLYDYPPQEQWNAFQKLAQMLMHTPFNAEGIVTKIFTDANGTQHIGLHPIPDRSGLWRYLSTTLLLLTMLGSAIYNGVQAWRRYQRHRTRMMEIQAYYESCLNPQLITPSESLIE

Target | log2 fold change
UniProt P37327 (peptide sequence: AMAIHEHIR, peptide start residue: 37) | -0.32
UniProt P39208 (peptide sequence: RAGHFMPVALLK, peptide start residue: 119) | -0.321
UniProt P45469 (peptide sequence: VKGEMEEALIAQNWPK, peptide start residue: 125) | 0.158
UniProt P43533 (peptide sequence: RKEPNTANSVDISQR, peptide start residue: 61) | 0.0901
UniProt P45568 (peptide sequence: TILLANKESLVTCGR, peptide start residue: 119) | -0.277
UniProt P45799 (peptide sequence: KLSMAPSYFSSK, peptide start residue: 112) | 0.326
UniProt P42590 (peptide sequence: HIEATPASNVD, peptide start residue: 467) | 0.0407
UniProt P37759 (peptide sequence: ALGWKPQETFESGIRK, peptide start residue: 314) | -0.195
UniProt P38135 (peptide sequence: EVEDILLQHPK, peptide start residue: 466) | -0.998
UniProt P43671 (peptide sequence: KAGQLSPGDPVLFR, peptide start residue: 166) | 0.517
UniProt P37590 (peptide sequence: HVLMLCDAGGAIK, peptide start residue: 17) | 0.104
UniProt P37671 (peptide sequence: KENEMAQEK, peptide start residue: 9) | 0.307
UniProt P33941 (peptide sequence: NGQLSELTGEER, peptide start residue: 524) | 0.179
UniProt P37647 (peptide sequence: IAVIGECMIELSEKGADVKR, peptide start residue: 5) | 0.402
UniProt P37652 (peptide sequence: LGATNQLR, peptide start residue: 476) | 0.0342
UniProt P36938 (peptide sequence: NPQEHYNELAK, peptide start residue: 428) | 0.372

Target | log2 fold change
UniProt P37028 (peptide sequence: QVDQLASLGIK, peptide start residue: 93) | -0.212
UniProt P39358 (peptide sequence: NIFADESHDIYTVR, peptide start residue: 5) | 0.289
UniProt P39346 (peptide sequence: TQSCVVAGK, peptide start residue: 5) | -0.294
UniProt P45736 (peptide sequence: NLTLQERK, peptide start residue: 15) | -0.162
UniProt P37351 (peptide sequence: HEIVAHLVER, peptide start residue: 17) | 0.496
UniProt P39364 (peptide sequence: DGVFANFVDQAR, peptide start residue: 244) | -0.138
UniProt P37339 (peptide sequence: AFCDQNGIRYDNCGK, peptide start residue: 75) | -0.444
UniProt P37197 (peptide sequence: LEKDPQLK, peptide start residue: 283) | 0.269
UniProt P39285 (peptide sequence: QAQQEQER, peptide start residue: 123) | 1.11
UniProt P39176 (peptide sequence: KQEAPTWTPTPNTRR, peptide start residue: 142) | -0.389
UniProt P45395 (peptide sequence: GFTAEDFALSHPGGALGRK, peptide start residue: 183) | -0.771
UniProt P37194 (peptide sequence: GNNQPDIQK, peptide start residue: 28) | 0.18
UniProt P37349 (peptide sequence: YIDVDDLLHR, peptide start residue: 369) | 0.148
UniProt P45800 (peptide sequence: ATALTEAVNR, peptide start residue: 447) | 0.127
UniProt P39830 (peptide sequence: GANQVVMGER, peptide start residue: 528) | 0.1

As a short view, part of the list above.
Target | log2 fold change
UniProt P45736 (peptide sequence: NLTLQERK, peptide start residue: 15) | -0.162
UniProt P37351 (peptide sequence: HEIVAHLVER, peptide start residue: 17) | 0.496
UniProt P39364 (peptide sequence: DGVFANFVDQAR, peptide start residue: 244) | -0.138
UniProt P37339 (peptide sequence: AFCDQNGIRYDNCGK, peptide start residue: 75) | -0.444
UniProt P37197 (peptide sequence: LEKDPQLK, peptide start residue: 283) | 0.269
UniProt P39285 (peptide sequence: QAQQEQER, peptide start residue: 123) | 1.11
UniProt P39176 (peptide sequence: KQEAPTWTPTPNTRR, peptide start residue: 142) | -0.389
UniProt P45395 (peptide sequence: GFTAEDFALSHPGGALGRK, peptide start residue: 183) | -0.771
